Results are given in words; binding and its absence hold for the method and conditions named. Some results given as binding are weak or reduced against the parent protein; the word gives no strength.
B1: single chain antibody γ+κ 12, pCANTAB5E clone 12 (phage presented and soluble forms) (scFv, not shown: small tags and cut ends)
scFv: MAQVQLQQSGPGLVKPSQTLSLTCDISGDSISTNGAAWNWIRQSPSRGLEWLGRTFYRSKWYNDYAVSVKSRMIINPDTSKNQFSLQLSSVTPEDTAVYYCARVACSGGTCLDGIDVWGQGTTVTVSSGGGGSGGGGSGGGGSDIVMTQSPSSLSASVGERVTITCRASQAIRNDLGWYQQKPGKAPKLLVYSASNLQSGVPSRFSGSGSGTDFTLTISSLQPEDFATYYCQQYHSYPRTFSQGTKLEIKR
B2: single chain antibody γ+κ 19, pCANTAB5E clone 19 (phage presented and soluble forms) (scFv, not shown: small tags and cut ends)
scFv: MAEVQLVESGAEVKNPGASVKVSCKASGYTLTGYYMHWVRQAPGQGLEWMGGIIPMYGTPTYAPRFQGRVTFTADYSTNTVYMELRSLRSEDTAVFYCARQADSASYLDYWGQGTLVTVSSGGGGSGGGGSGGGGSDVVMTQSPGTLSLSPGERATLSCRASQSLDSSYLAWYQQKPGRAPRLLIYGASDRDTGIPDRFSGSGSGTDFTLTISRLEPEDFAVYYCQQYGRSRTFGQGTKLEIKR
B3: single chain antibody γ+κ 40, pCANTAB5E clone 40 (phage presented and soluble forms) (scFv, not shown: small tags and cut ends)
scFv: MAQVQLVQSGVELRKPGDSVKVSCKASGYSVNTHGMSWVRQAPGQGLEWLGRISSYIGLTKFAQKFQDRVTLTTDTSTNTAYLEMRSLKSDDTAVYFCGRDDYEYDAFDVWGQGTMVTVSSGGGGSGGGGSSGGGSEIVLTQSPATLSVSPGERATLSCRTTESVTDSQLAWYQQKPGQAPRLLIYGPSTRATGIPDRFSGSGSGTDFTLTISGLEPEDFAVYYCQQRNSWYTFGQGTKLEIKR
B4: single chain antibody γ+κ 96, pCANTAB5E clone 96 (phage presented and soluble forms) (scFv, not shown: small tags and cut ends)
scFv: MAEVQLVESGAEAKKPGESLKISCKGSGYSFTTNWIGWVRQLPGKGLDWMGIIYPDDSDTRYSPSFQGQVTISADKSISTAYLQWNSLKASDTAMYYCARRQWGSFDLWGQGTMVTVSSGGGGSGGGGSGGGGSEIVLTQSPATLSLSPGERATLSCRASQSVSSFLAWYQQKPGQAPRLLIYGASSRATGIPDRFSGSGSGTDFTLTINRLEPEDFAVYYCQYYGSSGTFGQGTKVEIKR
B5: single chain antibody γ+κ 5 expressed from pET-22b(+) in E. coli BL21 (DE3), refolded and purified (scFv, not shown: small tags and cut ends)
scFv: MAQVQLQQSGPGLVKPSQTLSLTCAISGDSVSSRDAAWNWIRQSPSRGLEWLGRTYYRSEWYTDYAVSLESRLTVNPDTSRNQFSLQLNSVTPEDTAVYLCARGSSWGHAPAFFDYWGQGTLVTVSSGGGGSGGGGSGGGGSDIQMTQSPSSLSASVEDRVAITCRASQSVSTYVAWYQQKPGKAPKLLISQASSLENGVPSRFSGSGSGTDFTLTISSLQPEDFATYYCQQYTTYPYTFGQGTKLEIKR
B6: single chain antibody γ+κ 5, pCANTAB5E clone 5 (phage presented and soluble forms) (scFv, not shown: large carriers)
scFv: B5 scFv

Amino acid sequences for entries named in this document (tags omitted). Residues count along the entry.
UniProt P04114, residues 28-4563: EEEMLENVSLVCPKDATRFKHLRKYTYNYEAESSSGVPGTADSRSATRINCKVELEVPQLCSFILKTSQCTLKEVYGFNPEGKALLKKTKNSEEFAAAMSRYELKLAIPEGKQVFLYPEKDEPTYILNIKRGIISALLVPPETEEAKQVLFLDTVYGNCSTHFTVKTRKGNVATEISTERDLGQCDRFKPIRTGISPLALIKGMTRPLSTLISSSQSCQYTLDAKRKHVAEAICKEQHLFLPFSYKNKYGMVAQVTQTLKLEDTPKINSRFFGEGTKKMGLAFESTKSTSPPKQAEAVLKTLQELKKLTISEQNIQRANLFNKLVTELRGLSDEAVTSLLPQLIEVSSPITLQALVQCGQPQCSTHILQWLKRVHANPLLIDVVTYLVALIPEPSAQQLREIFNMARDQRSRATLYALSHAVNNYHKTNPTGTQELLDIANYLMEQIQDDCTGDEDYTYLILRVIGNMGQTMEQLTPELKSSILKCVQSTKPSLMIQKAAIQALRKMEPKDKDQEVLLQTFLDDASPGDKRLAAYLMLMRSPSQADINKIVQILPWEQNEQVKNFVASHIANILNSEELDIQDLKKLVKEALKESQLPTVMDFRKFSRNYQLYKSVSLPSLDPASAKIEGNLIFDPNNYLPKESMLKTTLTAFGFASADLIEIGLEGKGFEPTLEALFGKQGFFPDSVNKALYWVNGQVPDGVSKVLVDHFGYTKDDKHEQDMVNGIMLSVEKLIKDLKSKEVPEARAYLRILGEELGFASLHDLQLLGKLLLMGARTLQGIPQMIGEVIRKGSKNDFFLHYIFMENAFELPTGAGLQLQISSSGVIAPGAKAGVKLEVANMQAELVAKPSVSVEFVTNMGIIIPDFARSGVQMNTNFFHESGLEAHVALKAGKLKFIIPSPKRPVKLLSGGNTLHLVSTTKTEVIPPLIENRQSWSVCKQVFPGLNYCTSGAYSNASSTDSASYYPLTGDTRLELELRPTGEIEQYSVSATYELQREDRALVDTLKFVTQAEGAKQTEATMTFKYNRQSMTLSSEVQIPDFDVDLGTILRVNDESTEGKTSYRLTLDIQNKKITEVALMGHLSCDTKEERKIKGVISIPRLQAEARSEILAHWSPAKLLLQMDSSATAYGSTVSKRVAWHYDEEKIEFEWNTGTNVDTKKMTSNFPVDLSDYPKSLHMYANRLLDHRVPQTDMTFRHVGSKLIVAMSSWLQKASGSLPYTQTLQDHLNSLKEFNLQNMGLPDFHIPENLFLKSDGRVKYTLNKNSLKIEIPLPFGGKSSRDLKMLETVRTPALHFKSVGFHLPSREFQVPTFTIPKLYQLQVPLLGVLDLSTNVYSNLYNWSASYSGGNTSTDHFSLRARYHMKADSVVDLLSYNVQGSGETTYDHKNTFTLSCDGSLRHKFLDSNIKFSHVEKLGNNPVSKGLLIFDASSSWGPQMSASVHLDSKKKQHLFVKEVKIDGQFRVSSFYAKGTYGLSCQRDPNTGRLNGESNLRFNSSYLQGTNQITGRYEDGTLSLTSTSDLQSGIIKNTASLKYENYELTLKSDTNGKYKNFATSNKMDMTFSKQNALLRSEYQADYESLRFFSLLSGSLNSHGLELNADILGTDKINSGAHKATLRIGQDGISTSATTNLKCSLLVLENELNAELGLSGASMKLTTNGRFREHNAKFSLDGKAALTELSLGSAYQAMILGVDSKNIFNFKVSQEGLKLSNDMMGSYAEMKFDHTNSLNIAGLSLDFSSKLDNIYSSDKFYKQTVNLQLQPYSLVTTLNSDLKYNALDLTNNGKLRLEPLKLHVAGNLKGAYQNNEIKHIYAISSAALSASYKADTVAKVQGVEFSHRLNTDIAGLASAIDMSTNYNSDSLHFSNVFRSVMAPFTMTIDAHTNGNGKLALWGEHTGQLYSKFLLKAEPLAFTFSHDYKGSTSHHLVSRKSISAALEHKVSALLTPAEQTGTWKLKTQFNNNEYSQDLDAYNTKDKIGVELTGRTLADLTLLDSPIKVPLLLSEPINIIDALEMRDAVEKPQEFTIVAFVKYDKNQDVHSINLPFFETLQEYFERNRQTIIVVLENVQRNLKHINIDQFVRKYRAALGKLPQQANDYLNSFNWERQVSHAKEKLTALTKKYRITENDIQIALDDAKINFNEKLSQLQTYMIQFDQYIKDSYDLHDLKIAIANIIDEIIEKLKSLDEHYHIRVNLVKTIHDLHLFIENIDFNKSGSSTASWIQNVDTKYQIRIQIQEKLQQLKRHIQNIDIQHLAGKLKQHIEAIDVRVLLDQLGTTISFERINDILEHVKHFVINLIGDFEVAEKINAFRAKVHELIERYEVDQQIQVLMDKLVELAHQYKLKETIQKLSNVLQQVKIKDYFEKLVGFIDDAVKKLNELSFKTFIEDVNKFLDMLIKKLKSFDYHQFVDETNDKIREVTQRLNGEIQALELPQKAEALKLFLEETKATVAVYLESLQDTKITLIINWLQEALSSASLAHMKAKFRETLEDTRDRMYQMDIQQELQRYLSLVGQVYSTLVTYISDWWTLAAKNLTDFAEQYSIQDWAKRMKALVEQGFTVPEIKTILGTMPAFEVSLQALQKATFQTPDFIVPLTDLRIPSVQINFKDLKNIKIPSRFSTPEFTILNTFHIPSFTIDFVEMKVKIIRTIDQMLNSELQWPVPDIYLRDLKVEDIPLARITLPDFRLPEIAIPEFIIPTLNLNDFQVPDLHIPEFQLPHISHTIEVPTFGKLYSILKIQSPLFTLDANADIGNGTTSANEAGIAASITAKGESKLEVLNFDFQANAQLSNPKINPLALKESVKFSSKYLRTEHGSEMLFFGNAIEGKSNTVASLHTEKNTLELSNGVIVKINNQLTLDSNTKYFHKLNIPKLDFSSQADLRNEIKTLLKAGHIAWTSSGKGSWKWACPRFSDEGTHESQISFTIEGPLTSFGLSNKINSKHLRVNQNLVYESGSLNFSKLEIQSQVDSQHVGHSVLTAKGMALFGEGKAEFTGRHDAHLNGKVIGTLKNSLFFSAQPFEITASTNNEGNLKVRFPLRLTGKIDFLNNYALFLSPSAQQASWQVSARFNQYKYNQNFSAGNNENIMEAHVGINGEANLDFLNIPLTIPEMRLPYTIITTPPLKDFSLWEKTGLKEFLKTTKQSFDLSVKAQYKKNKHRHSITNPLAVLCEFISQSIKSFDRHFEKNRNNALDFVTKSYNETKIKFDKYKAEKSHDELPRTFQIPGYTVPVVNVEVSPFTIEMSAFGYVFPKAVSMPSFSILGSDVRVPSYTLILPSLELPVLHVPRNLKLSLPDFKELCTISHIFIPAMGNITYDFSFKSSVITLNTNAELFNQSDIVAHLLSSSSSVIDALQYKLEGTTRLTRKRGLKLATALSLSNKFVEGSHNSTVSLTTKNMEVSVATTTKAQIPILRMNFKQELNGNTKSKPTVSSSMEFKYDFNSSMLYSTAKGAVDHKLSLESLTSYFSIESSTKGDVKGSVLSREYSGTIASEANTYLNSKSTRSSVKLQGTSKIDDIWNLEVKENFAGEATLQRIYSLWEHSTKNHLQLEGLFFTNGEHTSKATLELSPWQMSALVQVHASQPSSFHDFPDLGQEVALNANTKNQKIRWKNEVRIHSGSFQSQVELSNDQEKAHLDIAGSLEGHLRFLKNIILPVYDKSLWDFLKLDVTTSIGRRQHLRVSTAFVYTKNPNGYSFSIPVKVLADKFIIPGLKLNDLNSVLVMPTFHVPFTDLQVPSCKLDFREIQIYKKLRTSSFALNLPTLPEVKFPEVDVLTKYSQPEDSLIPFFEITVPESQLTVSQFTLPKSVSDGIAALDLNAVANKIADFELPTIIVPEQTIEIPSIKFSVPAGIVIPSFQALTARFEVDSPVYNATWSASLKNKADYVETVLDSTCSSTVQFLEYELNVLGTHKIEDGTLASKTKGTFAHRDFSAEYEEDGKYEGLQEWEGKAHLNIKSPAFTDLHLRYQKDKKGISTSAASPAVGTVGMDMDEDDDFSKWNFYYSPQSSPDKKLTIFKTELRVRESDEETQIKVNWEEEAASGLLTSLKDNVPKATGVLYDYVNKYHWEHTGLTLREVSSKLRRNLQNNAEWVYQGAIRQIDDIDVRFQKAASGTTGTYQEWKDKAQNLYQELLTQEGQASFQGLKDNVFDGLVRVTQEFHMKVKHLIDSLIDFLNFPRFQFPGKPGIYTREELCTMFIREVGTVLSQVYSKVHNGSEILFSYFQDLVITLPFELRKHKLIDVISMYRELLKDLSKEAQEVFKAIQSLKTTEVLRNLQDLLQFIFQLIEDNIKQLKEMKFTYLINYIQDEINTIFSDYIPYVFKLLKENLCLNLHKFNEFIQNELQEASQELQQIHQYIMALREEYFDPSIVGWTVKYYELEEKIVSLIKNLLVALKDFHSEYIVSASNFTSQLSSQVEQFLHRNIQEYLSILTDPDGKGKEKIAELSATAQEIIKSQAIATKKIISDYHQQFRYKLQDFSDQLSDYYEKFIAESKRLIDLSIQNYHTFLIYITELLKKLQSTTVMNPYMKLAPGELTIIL

Assays:
fully oxidized LDL [1] = biological target: fully oxidized LDL (UniProt P04114); assay: ELISA of soluble single chain antibody on oxidized LDL
partially oxidized LDL = partially oxidized LDL (UniProt P04114); assay: direct ELISA, antigen on the plate, anti-His-HRP detection
[2] = biological target: LDL (unmodified low density lipoprotein) (UniProt P04114); assay: as above
fully oxidized LDL [3] = biological target: fully oxidized LDL (UniProt P04114); assay: as above
acetylated LDL = acetylated LDL (UniProt P04114); assay: as above

Row | Binder | binding (fully oxidized LDL [1]) | also measured
1 | B1 | binds | –
2 | B2 | binds | –
3 | B3 | binds | –
4 | B4 | binds | –
5 | B5 | – | binding (partially oxidized LDL): binds; binding [2]: binds; binding (fully oxidized LDL [3]): binds; binding (acetylated LDL): binds
6 | B6 | binds | –

From US20170354129A1
